Measured values reported in the supplement of paper PMC10735217.
The other results are listed elsewhere or left out. This data set is noisy: repeats of one test often differ as much as different tests do.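 The human kidney-derived cells carry a stably integrated construct of eight TEAD-binding elements driving luciferase, read by luminescence in a drug-repurposing library screen. A compound counts as a hit when its signal is more than five robust Z scores above the plate mean.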

Test system: HEK293A TEAD-LUC reporter
Assay: TEAD-luciferase reporter activity (YAP activation), robust Z score vs plate; higher = stronger YAP/TEAD activation
Conditions: 24 h

SMILES | TEAD-luciferase reporter activity (compound concentration: 200 nM) | TEAD-luciferase reporter activity (compound concentration: 2 uM) | TEAD-luciferase reporter activity (compound concentration: 10 uM)
CC(=O)NC[C@H]1CN(c2ccc(OC3CCN(C(=O)CO)CC3)c(F)c2)C(=O)O1 | inactive: -0.375 | inactive: -0.961 | inactive: -1.52
O=C(NC1CCNCC1)c1n[nH]cc1NC(=O)c1c(Cl)cccc1Cl | inactive: 0.532 | inactive: -2.22 | active: 13.4
C[C@@H](Oc1cc(-c2cnn(C3CCNCC3)c2)cnc1N)c1c(Cl)ccc(F)c1Cl [crizotinib] | inactive: 1.37 | inactive: -1.55 | inactive: 3.81
N#C/C(=C1/Nc2ccccc2S1)c1ccnc(NCCc2cccnc2)n1 | – | inactive: -2 | –
N#C/C(=C1/Nc2ccccc2S1)c1ccnc(NCCc2cccnc2)n1 [JNK Inhibitor V] | inactive: 0.621 | – | inactive: 0.151
CCN1CCN=C1CNC(=O)c1cc(Cl)c(N)cc1OC | inactive: -1.19 | inactive: 0.555 | inactive: 2.27
Cc1cn([C@@H]2O[C@H](CO)[C@@H](O)[C@@H]2F)c(=O)[nH]c1=O | inactive: -0.512 | inactive: -2.01 | inactive: -0.0222
N#C[C@@H]1CCCN1C(=O)[C@@H](N)CN1C(=O)[C@@H]2C[C@H]1CN2S(=O)(=O)c1cccc(F)c1 | inactive: -2.11 | inactive: -2.34 | inactive: -0.14
O=C[C@@H]1CCCN1C(=O)CCC(=O)NCc1ccc(Cl)cc1 | inactive: 0.354 | inactive: -0.718 | inactive: 0.925
CSCCC(NC(=O)COc1ccccc1)C(=O)OCC(=O)Nc1ccccc1 (stereo unspecified) | inactive: 1.44 | inactive: -0.121 | –
Cc1cc2c(cc1S(N)(=O)=O)S(=O)(=O)CCC2 | inactive: 0.00128 | inactive: -0.192 | inactive: 0.883
N=C(N)NCCC[C@@H]1NC(=O)[C@H](CCCNC(=N)N)NC(=O)[C@H](CCCNC(=N)N)NC(=O)[C@H](CCCNC(=N)N)NC(=O)[C@H](CCCNC(=N)N)NC(=O)[C@H](CCCNC(=N)N)NC(=O)[C@H](CCCNC(=N)N)NC1=O | inactive: -1.62 | inactive: 0.501 | inactive: -0.826
O=C(CNc1ccc2ccccc2c1)N/N=C/c1cc(Br)c(O)c(Br)c1O | inactive: -2.08 | inactive: -0.434 | inactive: -1.37
CC/C=C\C/C=C\C/C=C\C/C=C\C/C=C\C/C=C\CCC(=O)N[C@@H](CCCCN)C(=O)O [Epavir] | inactive: -0.746 | inactive: -0.497 | inactive: -1.45
Nc1ccc([C@@H](O)CNCCOc2ccc(CC(=O)O)cc2)cn1 | inactive: -0.678 | – | inactive: 1.19
Cc1cc(C)cc(C(=O)N2CCC(NCc3ccnc4ccccc34)CC2Cc2ccccc2)c1 (stereo unspecified) | inactive: 0.709 | inactive: -0.486 | inactive: 0.647
CC(C)(Oc1ccccc1)C(=O)OCCN1CCOCC1 | inactive: -1.53 | inactive: -1.82 | active: 8.05
CN1CCN(c2ccc3nc(-c4c(N)c5c(F)cccc5[nH]c4=O)[nH]c3c2)CC1 | inactive: 0.83 | – | inactive: 1.42
CN1CCN(c2ccc3nc(-c4c(N)c5c(F)cccc5[nH]c4=O)[nH]c3c2)CC1 [dovitinib lactate] | – | inactive: 2.07 | –
Cc1ccc(NC(=O)c2ccc(Cl)cc2Cl)c(C(=O)O)c1 | inactive: 1.01 | inactive: -0.555 | inactive: 0.648
CC1CC1C(=O)Nc1ccc(C(=O)NC2CCCN(Cc3cc(Cl)ccc3O)C2)cc1 (stereo unspecified) | inactive: -0.861 | inactive: -0.524 | inactive: 0.415
COc1ccc(CNC(=O)c2cc([N+](=O)[O-])ccc2NC(C)CO)cc1OC (stereo unspecified) | inactive: -0.664 | inactive: 0.00155 | active: 5.24
O=C(Nc1c[n+](N2CCOCC2)no1)C1CCCCC1 | inactive: 4.18 | inactive: -0.356 | inactive: -0.0268
Cn1c(=O)c2c(ncn2CC(=O)Nc2ccc(-c3ccccc3)nn2)n(C)c1=O | inactive: 1.39 | inactive: -1.48 | inactive: -0.0248
COc1cc2c(cc1OC)CN(CCc1ccc(NC(=O)c3cccc4c(=O)c5cccc(OC)c5[nH]c34)cc1)CC2 [Elacridar] | – | inactive: -0.516 | –
COc1cc2c(cc1OC)CN(CCc1ccc(NC(=O)c3cccc4c(=O)c5cccc(OC)c5[nH]c34)cc1)CC2 [elacridar] | inactive: 2.36 | inactive: -0.261 | inactive: -0.495
COc1c(N2CCNC(C)C2)c(F)cc2c(=O)c(C(=O)O)cn(C3CC3)c12 (stereo unspecified) [gatifloxacin] | – | inactive: -1.71 | –
COc1c(N2CCNC(C)C2)c(F)cc2c(=O)c(C(=O)O)cn(C3CC3)c12 (stereo unspecified) [Gatifloxacin] | inactive: -0.498 | – | inactive: -1.55

As a working copy, some entries already given:
SMILES | TEAD-luciferase reporter activity (compound concentration: 200 nM) | TEAD-luciferase reporter activity (compound concentration: 2 uM) | TEAD-luciferase reporter activity (compound concentration: 10 uM)
N#C/C(=C1/Nc2ccccc2S1)c1ccnc(NCCc2cccnc2)n1 [JNK Inhibitor V] | inactive: 0.621 | – | inactive: 0.151
CCN1CCN=C1CNC(=O)c1cc(Cl)c(N)cc1OC | inactive: -1.19 | inactive: 0.555 | inactive: 2.27
